Reference: the supplement of paper PMC10849652
The other results are listed elsewhere or left out.

The chains behind the UniProt entries cited, without tags or fusion partners. Where a name states a change or a piece, a line headed by the entry shows the natural chain unless it says otherwise.
UniProt P49336: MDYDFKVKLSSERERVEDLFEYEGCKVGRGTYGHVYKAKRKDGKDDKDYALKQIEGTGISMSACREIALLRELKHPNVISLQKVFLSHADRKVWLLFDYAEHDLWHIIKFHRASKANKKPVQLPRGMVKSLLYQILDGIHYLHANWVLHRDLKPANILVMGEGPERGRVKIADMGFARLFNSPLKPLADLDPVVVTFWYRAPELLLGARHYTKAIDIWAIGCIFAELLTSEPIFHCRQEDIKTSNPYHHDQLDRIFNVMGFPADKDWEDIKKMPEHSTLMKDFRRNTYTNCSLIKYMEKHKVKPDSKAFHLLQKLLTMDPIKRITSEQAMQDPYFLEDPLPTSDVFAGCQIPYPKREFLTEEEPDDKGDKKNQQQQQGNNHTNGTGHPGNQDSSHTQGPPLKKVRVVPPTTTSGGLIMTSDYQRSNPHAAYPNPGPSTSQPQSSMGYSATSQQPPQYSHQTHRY
UniProt O75956: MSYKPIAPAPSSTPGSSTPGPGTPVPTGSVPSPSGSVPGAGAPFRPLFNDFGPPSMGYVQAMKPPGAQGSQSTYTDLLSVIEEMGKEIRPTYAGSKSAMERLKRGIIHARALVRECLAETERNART
UniProt P49918: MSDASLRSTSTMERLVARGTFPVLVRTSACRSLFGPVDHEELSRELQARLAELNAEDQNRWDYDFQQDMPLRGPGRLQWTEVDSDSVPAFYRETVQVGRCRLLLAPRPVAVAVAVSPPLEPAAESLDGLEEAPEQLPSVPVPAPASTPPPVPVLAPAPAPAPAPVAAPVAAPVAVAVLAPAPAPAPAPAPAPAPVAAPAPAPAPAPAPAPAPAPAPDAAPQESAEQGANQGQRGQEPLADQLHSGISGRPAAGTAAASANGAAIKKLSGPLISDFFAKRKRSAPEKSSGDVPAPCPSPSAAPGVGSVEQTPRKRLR
UniProt A8MTT3: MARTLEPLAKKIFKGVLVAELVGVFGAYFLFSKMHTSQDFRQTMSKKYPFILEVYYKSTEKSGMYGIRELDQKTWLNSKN
UniProt Q9Y232: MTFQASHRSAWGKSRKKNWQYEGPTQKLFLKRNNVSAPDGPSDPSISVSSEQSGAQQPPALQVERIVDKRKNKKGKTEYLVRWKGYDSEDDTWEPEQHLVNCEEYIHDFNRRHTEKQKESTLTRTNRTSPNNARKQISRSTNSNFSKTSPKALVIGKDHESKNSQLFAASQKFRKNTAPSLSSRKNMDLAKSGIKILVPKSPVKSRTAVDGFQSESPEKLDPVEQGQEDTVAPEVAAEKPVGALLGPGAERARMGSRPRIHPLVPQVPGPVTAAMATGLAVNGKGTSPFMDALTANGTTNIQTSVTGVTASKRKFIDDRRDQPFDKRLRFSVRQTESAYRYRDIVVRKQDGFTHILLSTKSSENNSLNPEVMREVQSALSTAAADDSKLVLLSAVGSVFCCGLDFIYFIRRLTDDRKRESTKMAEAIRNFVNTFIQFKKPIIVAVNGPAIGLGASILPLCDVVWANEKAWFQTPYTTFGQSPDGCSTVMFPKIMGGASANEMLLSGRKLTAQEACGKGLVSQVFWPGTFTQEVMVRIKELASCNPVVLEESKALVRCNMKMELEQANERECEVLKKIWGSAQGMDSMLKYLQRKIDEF
UniProt Q5SZL2: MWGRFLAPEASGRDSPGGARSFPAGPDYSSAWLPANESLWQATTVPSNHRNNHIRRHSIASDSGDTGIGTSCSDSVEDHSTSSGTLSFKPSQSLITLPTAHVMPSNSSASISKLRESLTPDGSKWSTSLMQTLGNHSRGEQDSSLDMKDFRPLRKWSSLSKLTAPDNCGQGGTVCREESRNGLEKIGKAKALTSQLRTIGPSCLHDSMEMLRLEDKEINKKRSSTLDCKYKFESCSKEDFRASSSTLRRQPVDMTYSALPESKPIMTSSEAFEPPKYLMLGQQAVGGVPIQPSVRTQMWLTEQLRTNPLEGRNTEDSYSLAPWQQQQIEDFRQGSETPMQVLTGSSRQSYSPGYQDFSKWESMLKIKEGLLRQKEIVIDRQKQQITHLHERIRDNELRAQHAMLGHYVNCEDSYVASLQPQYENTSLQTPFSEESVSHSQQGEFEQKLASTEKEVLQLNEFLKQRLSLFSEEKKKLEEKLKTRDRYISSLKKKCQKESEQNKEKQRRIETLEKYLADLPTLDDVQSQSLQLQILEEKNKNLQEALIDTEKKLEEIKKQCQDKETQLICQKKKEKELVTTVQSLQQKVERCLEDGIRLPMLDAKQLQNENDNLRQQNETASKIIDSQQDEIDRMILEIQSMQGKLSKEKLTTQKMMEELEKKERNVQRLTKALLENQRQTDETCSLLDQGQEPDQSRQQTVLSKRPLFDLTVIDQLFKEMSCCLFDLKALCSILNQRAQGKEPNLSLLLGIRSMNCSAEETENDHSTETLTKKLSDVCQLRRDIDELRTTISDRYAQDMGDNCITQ
UniProt Q6ZTR5: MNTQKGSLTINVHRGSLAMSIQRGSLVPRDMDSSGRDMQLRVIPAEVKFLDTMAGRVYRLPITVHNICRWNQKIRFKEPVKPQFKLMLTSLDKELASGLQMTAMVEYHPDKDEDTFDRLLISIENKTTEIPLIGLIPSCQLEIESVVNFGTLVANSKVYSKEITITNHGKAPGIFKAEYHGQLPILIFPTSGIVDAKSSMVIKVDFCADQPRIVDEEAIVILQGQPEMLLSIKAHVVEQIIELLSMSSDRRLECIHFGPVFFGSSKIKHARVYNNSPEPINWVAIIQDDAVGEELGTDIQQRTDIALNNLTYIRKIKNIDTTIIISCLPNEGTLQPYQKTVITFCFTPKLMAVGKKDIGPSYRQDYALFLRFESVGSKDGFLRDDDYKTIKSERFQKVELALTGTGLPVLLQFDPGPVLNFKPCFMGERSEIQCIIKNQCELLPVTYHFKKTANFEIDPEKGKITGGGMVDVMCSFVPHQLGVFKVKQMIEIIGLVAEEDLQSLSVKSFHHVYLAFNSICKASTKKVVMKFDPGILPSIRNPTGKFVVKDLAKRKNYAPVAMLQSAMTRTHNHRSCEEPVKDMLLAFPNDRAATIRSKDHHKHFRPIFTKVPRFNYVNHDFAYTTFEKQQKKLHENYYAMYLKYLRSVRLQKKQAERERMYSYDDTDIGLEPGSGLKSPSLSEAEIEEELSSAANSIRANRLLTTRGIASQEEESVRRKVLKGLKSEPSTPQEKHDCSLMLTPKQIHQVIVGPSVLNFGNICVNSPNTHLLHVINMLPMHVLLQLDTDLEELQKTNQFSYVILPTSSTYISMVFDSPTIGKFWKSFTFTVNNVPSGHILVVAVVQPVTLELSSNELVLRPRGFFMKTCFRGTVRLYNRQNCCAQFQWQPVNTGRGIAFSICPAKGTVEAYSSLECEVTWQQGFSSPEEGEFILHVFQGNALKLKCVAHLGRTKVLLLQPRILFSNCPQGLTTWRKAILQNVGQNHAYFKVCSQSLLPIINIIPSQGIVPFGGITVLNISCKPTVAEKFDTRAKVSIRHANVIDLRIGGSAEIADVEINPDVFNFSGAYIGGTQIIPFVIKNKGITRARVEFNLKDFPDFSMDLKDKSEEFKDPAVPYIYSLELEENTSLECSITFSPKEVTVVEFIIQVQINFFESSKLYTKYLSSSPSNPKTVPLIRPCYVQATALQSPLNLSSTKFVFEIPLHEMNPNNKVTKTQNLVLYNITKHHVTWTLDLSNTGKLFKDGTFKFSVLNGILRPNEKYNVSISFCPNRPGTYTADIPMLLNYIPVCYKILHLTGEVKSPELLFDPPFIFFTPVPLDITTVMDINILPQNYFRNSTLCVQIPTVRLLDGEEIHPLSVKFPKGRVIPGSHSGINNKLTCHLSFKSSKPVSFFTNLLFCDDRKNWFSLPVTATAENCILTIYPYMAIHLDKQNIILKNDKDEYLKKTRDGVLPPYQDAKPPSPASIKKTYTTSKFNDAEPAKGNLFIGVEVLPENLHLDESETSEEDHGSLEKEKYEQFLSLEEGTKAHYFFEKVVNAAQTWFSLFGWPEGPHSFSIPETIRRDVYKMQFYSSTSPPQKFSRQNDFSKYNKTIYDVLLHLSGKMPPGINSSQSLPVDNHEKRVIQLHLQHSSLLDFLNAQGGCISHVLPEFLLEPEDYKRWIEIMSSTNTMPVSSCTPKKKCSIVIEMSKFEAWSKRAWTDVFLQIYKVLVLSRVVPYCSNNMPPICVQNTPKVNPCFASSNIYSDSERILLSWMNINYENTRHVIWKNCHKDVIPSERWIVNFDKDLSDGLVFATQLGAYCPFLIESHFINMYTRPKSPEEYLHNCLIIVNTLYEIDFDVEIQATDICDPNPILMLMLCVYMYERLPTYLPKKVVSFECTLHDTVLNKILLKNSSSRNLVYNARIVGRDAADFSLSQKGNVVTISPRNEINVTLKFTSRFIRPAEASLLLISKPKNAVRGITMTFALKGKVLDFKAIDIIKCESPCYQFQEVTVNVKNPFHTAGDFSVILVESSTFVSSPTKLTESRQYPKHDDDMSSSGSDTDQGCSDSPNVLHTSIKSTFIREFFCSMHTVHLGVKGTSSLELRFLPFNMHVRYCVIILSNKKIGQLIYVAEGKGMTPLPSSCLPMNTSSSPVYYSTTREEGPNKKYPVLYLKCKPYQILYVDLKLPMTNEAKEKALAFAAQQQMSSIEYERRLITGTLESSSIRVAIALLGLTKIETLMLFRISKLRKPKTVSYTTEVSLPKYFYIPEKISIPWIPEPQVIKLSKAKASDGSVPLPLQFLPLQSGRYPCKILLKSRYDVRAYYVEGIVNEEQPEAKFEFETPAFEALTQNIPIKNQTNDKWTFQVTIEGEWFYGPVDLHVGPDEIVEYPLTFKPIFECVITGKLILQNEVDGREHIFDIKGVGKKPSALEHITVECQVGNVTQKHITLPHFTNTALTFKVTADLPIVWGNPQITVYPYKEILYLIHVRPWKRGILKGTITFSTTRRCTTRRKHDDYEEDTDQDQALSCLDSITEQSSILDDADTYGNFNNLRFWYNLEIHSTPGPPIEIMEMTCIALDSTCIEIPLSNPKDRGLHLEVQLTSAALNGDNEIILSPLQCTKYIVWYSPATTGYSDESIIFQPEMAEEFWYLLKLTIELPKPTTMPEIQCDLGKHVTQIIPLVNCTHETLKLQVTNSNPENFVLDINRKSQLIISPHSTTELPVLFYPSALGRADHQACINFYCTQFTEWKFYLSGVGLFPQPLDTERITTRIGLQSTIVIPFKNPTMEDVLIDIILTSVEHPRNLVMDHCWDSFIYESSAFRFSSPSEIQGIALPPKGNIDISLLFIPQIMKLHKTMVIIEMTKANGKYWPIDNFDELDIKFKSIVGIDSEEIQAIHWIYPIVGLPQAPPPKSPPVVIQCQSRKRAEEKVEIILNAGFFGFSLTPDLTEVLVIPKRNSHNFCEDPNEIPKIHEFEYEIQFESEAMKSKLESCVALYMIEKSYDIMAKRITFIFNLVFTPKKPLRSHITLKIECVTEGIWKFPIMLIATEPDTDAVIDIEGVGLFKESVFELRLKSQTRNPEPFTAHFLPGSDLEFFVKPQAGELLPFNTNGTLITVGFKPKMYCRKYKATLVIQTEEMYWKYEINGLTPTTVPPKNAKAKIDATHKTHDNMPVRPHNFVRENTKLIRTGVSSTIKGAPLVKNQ
UniProt Q69YH5: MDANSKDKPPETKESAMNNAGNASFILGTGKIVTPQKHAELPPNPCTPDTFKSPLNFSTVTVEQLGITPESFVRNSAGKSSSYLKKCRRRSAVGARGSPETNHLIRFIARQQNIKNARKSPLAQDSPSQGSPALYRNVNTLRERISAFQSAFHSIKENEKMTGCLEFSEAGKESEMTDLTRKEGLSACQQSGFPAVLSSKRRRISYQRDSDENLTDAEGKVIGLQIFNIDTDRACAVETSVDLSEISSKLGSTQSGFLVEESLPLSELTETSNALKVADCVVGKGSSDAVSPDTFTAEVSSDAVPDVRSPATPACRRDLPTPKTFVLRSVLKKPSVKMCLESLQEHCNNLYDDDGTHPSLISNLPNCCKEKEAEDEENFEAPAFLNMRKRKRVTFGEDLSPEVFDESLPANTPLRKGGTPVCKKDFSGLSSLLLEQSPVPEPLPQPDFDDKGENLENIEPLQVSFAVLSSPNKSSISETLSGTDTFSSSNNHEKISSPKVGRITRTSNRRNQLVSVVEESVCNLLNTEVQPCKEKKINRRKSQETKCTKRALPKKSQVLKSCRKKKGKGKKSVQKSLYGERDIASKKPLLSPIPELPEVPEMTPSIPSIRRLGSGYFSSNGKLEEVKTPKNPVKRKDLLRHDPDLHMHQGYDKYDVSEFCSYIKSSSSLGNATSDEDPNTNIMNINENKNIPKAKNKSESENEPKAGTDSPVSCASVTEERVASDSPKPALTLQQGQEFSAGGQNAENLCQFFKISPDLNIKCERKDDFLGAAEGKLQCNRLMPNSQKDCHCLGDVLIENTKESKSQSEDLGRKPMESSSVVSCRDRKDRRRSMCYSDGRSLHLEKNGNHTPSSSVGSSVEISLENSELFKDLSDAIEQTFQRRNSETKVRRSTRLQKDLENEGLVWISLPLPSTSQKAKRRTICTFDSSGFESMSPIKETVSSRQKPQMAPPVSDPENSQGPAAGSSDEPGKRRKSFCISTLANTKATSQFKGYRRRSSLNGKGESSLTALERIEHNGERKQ

The targets below were run with C#Cc1cccc(Nc2ncnc3cc(OCCOC)c(OCCOC)cc23)c1 [erlotinib] (assay: log2 fold change, soluble protein after heating vs DMSO (PISA); higher = thermal stabilisation; K562 lysate, 10 uM; active = over 0.2 and 3.5 SD of the protein, either way, in both replicates (recomputed)).
Summary of the method: (§1)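 Pellets of K562 cells were dounce-homogenised in PBS pH 7.4 with 1 mM MgCl2, and the crude extract was held at 1 mg/mL protein for a 30 min treatment with 10 μM compound. Aliquots were heated for 3 min over 48°C-58°C and pooled before NP-40 was added to 0.5% at 4°C. The supernatant from 21,000xg for 90 min was quantified by TMTpro 16plex LC-MS/MS with channel sums equalised. Values are reported from duplicates as log-two fold change in thermal stability relative to solvent controls.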

log2 fold change, inactive:
CDC40 (UniProt O60508) -0.036
CEP41 (UniProt Q9BYV8) -0.068
CENPP (UniProt Q6IPU0) -0.007
CDK8 (UniProt P49336) -0.012
CDC42BPA isoform 6 (UniProt Q5VT25) -0.007
CD99 (UniProt P14209) -0.012
CENPO (UniProt Q9BU64) -0.147
CDK2AP2 (UniProt O75956) 0.053
CFAP410 (UniProt O43822) -0.079
CDK4 (UniProt P11802) -0.03
CDKN1C (UniProt P49918) -0.021
CDCA8 (UniProt Q53HL2) 0.112
CENPJ (UniProt Q9HC77) 0.013
CEP83 (UniProt Q9Y592) 0.092
CDC42EP4 (UniProt Q9H3Q1) 0.025
CEP78 isoform 2 (UniProt Q5JTW2) 0.204
CEBPZOS (UniProt A8MTT3) -0.038
CEP85 isoform 2 (UniProt Q6P2H3) 0.019
CEP192 (UniProt Q8TEP8) 0.035
CDR2L (UniProt Q86X02) -0.041
CD82 (UniProt P27701) -0.019
CDC7 (UniProt O00311) -0.032
CDC37 (UniProt K7EKQ2) 0.053
CDR2 (UniProt Q01850) 0.012
CDSN (UniProt Q15517) 0.315
CDYL (UniProt Q9Y232) -0.033
CDK5 (UniProt Q00535) -0.018
CEP120 (UniProt Q8N960) 0.044
CFAP97 (UniProt Q9P2B7) -0.078
CEP85L isoform 4 (UniProt Q5SZL2) 0.067
CELF2 isoform 3 (UniProt O95319) -0.111
CD99L2 isoform 5 (UniProt Q8TCZ2) -0.018
CFL1 (UniProt P23528) -0.032
CEBPB (UniProt P17676) -0.034
CDCA5 (UniProt Q96FF9) -0.026
CFAP47 (UniProt Q6ZTR5) 0.069
CDC42BPB (UniProt Q9Y5S2) 0.001
CEP250 (UniProt Q9BV73) 0
CDK2 (UniProt P24941) -0.026
CDCA2 (UniProt Q69YH5) 0.094

What follows are targets tested with C/C(=N\NC(=O)C1=CC(=CC=C1)S(=O)(=O)N2CCOCC2)/C3=C(C=CC(=C3)Cl)O in the same assay as above.
Summary of the method: as §1

log2 fold change, inactive:
CDC40 (UniProt O60508) -0.004
CEP41 (UniProt Q9BYV8) -0.125
CENPP (UniProt Q6IPU0) -0.085
CDK8 (UniProt P49336) -0.059
CDC42BPA isoform 6 (UniProt Q5VT25) 0.077
CD99 (UniProt P14209) 0.084
CDK2AP2 (UniProt O75956) 0.042
CFAP410 (UniProt O43822) 0.107
CDK4 (UniProt P11802) -0.094
CDKN1C (UniProt P49918) 0.34
CDCA8 (UniProt Q53HL2) 0.054
CENPJ (UniProt Q9HC77) -0.031
CEP83 (UniProt Q9Y592) -0.025
CDC42EP4 (UniProt Q9H3Q1) -0.053
CEBPZOS (UniProt A8MTT3) 0.013
CEP85 isoform 2 (UniProt Q6P2H3) -0.043
CEP192 (UniProt Q8TEP8) -0.019
CDR2L (UniProt Q86X02) 0.038
CD82 (UniProt P27701) -0.044
CDC7 (UniProt O00311) 0.038
CDC37 (UniProt K7EKQ2) -0.026
CDR2 (UniProt Q01850) -0.014
CDSN (UniProt Q15517) -0.226
CDYL (UniProt Q9Y232) -0.06
CDK5 (UniProt Q00535) -0.065
CEP120 (UniProt Q8N960) -0.124
CFAP97 (UniProt Q9P2B7) -0.222
CEP85L isoform 4 (UniProt Q5SZL2) 0.058
CELF2 isoform 3 (UniProt O95319) -0.041
CD99L2 isoform 5 (UniProt Q8TCZ2) -0.047
CFL1 (UniProt P23528) -0.004
CEBPB (UniProt P17676) 0.073
CDCA5 (UniProt Q96FF9) -0.155
CFAP47 (UniProt Q6ZTR5) 0.325
CDC42BPB (UniProt Q9Y5S2) -0.016
CEP250 (UniProt Q9BV73) -0.009
CDK2 (UniProt P24941) -0.152
CDCA2 (UniProt Q69YH5) -0.038
